According to publication PMC11180178:
Results are given in words; binding and its absence hold for the method and conditions named. Binding seen in cells or lysates may run through a third protein. Here binding means that the protein was enriched with, or labelled near, the bait; the list need not be complete.

The chains behind the UniProt entries cited, without tags or fusion partners. Residues count along the entry.
UniProt P30532, residues 23-468: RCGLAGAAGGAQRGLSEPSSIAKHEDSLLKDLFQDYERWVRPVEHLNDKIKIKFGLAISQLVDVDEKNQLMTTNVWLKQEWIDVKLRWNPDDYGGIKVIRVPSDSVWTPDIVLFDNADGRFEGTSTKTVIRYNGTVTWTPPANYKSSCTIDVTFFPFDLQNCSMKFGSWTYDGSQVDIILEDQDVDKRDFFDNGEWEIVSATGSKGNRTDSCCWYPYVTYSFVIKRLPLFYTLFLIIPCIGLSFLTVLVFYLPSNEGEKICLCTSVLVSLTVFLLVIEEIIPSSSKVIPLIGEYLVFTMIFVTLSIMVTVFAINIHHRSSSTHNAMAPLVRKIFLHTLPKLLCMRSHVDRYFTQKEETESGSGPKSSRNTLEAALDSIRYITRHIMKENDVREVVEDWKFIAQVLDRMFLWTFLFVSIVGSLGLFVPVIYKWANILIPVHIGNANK

Biological target: cholinergic receptor nicotinic alpha 5 subunit (CHRNA5) (human (endogenous in AMC-HN8 and FD-LSC-1)) (UniProt P30532)
Assay: affinity purification with mass spectrometry; IP with anti-CHRNA5 antibodies and protein A/G beads overnight from AMC-HN8 lysate; IgG as control; eluted proteins digested and analysed by MS

binding: binds
B1: RABL6 (protein, UniProt Q3YEC7 1-729)
chain: MFSALKKLVGSDQAPGRDKNIPAGLQSMNQALQRRFAKGVQYNMKIVIRGDRNTGKTALWHRLQGRPFVEEYIPTQEIQVTSIHWSYKTTDDIVKVEVWDVVDKGKCKKRGDGLKMENDPQEAESEMALDAEFLDVYKNCNGVVMMFDITKQWTFNYILRELPKVPTHVPVCVLGNYRDMGEHRVILPDDVRDFIDNLDRPPGSSYFRYAESSMKNSFGLKYLHKFFNIPFLQLQRETLLRQLETNQLDMDATLEELSVQQETEDQNYGIFLEMMEARSRGHASPLAANGQSPSPGSQSPVVPAGAVSTGSSSPGTPQPAPQLPLNAAPPSSVPPVPPSEALPPPACPSAPAPRRSIISRLFGTSPATEAAPPPPEPVPAAEGPATVQSVEDFVPDDRLDRSFLEDTTPARDEKKVGAKAAQQDSDSDGEALGGNPMVAGFQDDVDLEDQPRGSPPLPAGPVPSQDITLSSEEEAEVAAPTKGPAPAPQQCSEPETKWSSIPASKPRRGTAPTRTAAPPWPGGVSVRTGPEKRSSTRPPAEMEPGKGEQASSSESDPEGPIAAQMLSFVMDDPDFESEGSDTQRRADDFPVRDDPSDVTDEDEGPAEPPPPPKLPLPAFRLKNDSDLFGLGLEEAGPKESSEEGKEGKTPSKEKKKKKKKGKEEEEKAAKKKSKHKKSKDKEEGKEERRRRQQRPPRSRERTAADELEAFLGGGAPGGRHPGGGDYEEL
